Assay results from patent publication US10385080B2, “STAT6 inhibitors” (Board of Regents, The University of Texas System, priority 2013, dated 2019).

System: sensitization of Th2 cells to ovalbumin
Assay: Site of activity: intranasal versus intraperitoneal inhibitor during OVA/Alum sensitization
Format: in vivo, mice
Settings: intranasal every other day

Row | Compound | site of activity after intranasal administration
1 | C/C(=C\C(=O)N[C@H](C(=O)N1CCC[C@H]1C(=O)N1CCCc2ccccc21)C(C)(C)C)c1ccc(C(F)(F)P(=O)(OCOC(=O)C(C)(C)C)OCOC(=O)C(C)(C)C)cc1 [PM-86I] | restricted to the lung
2 | CC(=CC(=O)NC1CCCCN(CC(=O)N(C)c2ccccc2)C1=O)c1ccc(C(F)(F)P(=O)(OCOC(=O)C(C)(C)C)OCOC(=O)C(C)(C)C)cc1 (centres unmarked) [PM-43I] | restricted to the lung
